# The supplement of paper PMC12067093, “Discovery and optimisation of a covalent ligand for TRIM25 and its application to targeted protein ubiquitination” (Chemical Science, 2025)
# Protein sequences, listed by entry. Tags and fused reporters are not part of them. Lines headed by an entry give the natural chain unless they say otherwise; changes in a name come on top.
# UniProt Q13315: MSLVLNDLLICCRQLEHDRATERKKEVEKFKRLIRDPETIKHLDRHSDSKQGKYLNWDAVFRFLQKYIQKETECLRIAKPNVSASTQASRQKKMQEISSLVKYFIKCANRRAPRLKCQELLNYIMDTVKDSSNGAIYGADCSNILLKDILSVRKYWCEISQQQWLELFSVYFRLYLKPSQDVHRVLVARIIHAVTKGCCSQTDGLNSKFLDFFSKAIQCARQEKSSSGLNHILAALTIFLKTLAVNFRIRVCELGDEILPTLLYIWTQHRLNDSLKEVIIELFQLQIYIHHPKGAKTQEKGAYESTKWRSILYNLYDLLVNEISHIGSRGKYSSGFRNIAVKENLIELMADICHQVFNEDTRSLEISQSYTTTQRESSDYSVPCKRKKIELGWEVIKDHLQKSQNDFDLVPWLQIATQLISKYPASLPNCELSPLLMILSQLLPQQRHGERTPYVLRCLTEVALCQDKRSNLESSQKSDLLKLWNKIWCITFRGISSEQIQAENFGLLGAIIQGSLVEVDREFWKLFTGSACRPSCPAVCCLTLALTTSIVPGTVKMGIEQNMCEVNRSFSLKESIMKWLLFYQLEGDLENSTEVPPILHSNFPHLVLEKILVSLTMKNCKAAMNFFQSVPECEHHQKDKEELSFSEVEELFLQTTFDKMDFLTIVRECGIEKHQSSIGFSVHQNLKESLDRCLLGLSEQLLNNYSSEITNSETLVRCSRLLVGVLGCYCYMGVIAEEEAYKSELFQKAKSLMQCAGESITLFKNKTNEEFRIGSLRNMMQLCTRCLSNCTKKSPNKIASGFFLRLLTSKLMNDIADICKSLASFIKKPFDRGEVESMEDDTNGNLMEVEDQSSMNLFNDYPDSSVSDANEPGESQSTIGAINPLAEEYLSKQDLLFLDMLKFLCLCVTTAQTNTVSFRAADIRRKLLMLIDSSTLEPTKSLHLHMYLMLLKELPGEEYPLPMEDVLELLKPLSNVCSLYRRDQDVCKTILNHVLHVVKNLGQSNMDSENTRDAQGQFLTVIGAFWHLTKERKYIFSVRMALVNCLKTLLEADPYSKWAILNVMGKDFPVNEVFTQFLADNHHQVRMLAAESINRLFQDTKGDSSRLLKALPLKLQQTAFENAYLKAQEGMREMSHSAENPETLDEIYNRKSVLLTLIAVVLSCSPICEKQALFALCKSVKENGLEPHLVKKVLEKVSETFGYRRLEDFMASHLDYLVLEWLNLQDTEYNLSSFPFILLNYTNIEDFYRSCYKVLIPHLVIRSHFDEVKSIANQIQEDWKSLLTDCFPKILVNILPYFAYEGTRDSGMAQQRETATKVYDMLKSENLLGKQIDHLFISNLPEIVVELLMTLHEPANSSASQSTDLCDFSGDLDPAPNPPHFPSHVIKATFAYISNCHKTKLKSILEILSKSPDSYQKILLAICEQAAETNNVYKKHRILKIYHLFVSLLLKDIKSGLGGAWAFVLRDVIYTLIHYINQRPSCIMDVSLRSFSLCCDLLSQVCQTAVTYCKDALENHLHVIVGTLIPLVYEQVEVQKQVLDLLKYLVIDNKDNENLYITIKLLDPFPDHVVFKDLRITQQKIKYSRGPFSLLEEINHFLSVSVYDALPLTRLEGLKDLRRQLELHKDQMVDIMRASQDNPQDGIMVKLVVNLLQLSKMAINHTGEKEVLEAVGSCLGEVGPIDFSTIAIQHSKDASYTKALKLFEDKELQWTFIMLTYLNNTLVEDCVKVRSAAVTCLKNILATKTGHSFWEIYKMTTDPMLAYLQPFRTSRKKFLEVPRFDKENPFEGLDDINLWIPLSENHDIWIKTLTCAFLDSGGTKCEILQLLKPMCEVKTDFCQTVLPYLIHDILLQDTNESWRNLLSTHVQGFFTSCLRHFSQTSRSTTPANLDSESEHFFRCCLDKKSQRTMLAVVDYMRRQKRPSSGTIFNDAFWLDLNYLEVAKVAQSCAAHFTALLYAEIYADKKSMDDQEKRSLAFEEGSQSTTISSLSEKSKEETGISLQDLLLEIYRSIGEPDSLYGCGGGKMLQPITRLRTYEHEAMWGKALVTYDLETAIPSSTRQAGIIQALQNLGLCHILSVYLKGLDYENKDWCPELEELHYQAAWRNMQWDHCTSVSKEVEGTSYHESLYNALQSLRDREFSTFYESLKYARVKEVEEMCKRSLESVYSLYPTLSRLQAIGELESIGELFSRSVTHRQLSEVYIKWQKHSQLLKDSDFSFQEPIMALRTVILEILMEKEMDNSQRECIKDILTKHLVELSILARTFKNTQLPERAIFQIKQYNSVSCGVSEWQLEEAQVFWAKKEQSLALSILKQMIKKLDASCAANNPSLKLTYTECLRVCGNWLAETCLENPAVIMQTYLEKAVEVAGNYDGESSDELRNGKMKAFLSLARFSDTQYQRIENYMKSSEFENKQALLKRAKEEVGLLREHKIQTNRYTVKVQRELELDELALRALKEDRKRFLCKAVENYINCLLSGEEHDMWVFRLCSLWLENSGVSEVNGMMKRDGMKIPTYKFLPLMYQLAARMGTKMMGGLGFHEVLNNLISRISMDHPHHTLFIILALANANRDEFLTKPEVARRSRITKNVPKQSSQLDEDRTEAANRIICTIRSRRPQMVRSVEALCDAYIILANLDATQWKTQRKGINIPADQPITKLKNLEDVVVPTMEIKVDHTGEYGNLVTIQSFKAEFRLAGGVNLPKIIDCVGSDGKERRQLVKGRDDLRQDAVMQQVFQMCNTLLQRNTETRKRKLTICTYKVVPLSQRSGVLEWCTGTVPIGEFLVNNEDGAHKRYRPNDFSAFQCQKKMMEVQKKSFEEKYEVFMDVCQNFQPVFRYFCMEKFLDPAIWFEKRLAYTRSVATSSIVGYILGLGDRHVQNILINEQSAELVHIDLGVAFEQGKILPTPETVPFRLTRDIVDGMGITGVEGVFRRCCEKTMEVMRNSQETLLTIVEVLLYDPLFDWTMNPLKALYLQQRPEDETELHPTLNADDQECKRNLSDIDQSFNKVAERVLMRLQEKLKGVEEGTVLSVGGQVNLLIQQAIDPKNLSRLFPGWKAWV
# UniProt P38606, whole entry, looked up: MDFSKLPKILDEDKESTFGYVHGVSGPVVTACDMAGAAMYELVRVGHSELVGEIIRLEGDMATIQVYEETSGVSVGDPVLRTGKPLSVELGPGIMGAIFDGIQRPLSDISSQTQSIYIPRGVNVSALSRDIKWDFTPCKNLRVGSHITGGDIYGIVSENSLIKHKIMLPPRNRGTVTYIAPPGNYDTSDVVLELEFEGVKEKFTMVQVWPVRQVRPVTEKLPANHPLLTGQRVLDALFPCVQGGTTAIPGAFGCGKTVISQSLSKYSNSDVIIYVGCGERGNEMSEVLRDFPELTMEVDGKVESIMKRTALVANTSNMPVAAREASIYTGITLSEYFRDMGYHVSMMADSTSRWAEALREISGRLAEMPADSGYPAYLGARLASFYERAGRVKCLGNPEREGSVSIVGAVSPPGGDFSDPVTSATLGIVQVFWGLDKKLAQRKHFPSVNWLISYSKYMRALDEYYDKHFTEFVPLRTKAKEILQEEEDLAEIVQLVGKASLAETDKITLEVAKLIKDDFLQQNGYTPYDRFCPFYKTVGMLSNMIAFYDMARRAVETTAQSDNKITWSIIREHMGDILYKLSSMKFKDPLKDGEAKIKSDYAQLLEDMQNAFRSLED
# UniProt Q9Y2G3: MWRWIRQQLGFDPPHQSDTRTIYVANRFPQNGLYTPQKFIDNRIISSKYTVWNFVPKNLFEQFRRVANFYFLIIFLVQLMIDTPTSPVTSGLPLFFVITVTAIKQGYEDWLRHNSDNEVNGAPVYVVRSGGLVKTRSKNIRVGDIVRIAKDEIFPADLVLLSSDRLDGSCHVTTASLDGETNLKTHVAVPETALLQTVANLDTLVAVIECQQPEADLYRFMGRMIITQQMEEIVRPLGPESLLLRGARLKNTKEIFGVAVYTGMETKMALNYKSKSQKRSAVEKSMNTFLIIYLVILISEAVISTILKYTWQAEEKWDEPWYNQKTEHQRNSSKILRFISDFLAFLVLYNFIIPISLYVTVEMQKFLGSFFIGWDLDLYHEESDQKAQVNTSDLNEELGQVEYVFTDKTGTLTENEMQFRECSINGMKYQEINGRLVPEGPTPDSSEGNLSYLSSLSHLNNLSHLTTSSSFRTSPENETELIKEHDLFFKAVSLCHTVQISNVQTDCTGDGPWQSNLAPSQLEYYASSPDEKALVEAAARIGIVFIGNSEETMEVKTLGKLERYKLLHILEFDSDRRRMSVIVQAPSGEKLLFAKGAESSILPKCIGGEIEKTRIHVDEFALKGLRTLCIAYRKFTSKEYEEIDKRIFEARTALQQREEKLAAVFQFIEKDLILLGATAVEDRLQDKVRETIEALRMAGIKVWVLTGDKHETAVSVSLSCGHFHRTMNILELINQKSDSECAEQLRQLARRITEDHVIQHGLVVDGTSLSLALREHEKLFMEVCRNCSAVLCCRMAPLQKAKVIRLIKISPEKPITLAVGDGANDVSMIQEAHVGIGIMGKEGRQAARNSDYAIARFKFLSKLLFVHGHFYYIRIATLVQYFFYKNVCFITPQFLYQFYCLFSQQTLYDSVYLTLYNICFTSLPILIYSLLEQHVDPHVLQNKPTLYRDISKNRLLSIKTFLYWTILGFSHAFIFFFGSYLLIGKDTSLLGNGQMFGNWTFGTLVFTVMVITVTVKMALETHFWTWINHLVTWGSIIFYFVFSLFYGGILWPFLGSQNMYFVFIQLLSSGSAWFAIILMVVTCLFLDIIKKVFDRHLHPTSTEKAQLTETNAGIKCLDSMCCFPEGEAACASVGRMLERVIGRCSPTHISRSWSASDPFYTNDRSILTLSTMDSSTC
# UniProt P16615: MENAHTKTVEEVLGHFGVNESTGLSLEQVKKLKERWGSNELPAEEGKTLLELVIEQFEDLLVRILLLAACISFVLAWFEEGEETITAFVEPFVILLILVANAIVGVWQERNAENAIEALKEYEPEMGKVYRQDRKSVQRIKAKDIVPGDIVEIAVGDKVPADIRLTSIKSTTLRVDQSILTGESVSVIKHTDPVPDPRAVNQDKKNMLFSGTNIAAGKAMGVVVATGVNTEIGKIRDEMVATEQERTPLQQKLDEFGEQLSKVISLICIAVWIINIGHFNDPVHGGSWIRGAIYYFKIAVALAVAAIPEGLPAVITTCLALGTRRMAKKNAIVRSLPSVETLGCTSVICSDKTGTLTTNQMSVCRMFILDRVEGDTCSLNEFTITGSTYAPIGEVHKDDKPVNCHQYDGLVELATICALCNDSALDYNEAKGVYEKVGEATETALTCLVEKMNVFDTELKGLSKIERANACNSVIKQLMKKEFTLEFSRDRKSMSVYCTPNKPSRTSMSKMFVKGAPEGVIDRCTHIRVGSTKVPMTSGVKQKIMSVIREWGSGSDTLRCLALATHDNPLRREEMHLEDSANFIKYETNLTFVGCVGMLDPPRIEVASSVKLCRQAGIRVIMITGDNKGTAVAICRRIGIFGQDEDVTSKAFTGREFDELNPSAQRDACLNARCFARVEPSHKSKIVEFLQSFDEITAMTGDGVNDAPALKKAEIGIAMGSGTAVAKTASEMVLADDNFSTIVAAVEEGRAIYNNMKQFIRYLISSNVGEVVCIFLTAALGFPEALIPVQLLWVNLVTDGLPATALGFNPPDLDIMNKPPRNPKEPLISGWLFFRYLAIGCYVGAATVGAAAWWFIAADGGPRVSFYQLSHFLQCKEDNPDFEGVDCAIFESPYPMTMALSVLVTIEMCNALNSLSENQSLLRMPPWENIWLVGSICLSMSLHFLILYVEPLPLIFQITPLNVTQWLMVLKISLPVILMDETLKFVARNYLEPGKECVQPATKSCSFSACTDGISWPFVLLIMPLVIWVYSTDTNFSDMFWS
# UniProt O00244: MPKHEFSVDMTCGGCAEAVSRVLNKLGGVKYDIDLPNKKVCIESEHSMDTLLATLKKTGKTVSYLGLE
# UniProt P31939: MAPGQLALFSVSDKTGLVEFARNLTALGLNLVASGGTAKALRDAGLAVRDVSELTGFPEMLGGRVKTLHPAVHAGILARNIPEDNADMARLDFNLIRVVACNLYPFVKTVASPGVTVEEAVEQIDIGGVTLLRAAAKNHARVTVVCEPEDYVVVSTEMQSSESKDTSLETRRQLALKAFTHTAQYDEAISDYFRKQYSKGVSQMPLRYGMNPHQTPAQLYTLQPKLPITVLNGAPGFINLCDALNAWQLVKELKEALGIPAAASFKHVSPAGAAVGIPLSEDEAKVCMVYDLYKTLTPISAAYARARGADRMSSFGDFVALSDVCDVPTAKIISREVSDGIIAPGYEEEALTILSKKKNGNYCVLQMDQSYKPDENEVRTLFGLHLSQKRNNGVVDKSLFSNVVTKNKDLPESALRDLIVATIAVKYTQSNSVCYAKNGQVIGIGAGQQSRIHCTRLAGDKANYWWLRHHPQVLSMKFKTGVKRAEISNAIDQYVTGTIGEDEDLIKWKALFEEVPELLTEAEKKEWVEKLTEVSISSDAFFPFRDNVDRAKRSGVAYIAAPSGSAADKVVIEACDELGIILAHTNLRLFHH
# Some of the results follow.
# Compound: Cc1cc(ccc1-c1ccccc1)C(=O)N1CCCN(CC1)C(=O)CCl [compound 10]
# Assay: probe-labelled cysteine peptide fold change vs DMSO (competition) (log2 fold change); higher = less target engagement (more negative = stronger competition)
# Conditions: THP-1, incubation time: 4 h
# 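Note: competitive profiling in live THP-1 cells: cysteine peptides tagged with an iodoacetamide desthiobiotin (IA-DTB) probe, intensity after compound treatment relative to DMSO-treated cells.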
Target,probe-labelled cysteine peptide fold change (10 µM),probe-labelled cysteine peptide fold change (50 µM)
ATM_Q13315_2092_DWCPELEELHYQAAWR (UniProt Q13315),-0.0425,-0.0794
ATP6V1A_P38606_138_WDFTPCK (UniProt P38606),-1.09,-3.27
ATP11B_Q9Y2G3_170_LDGSCHVTTASLDGETNLK (UniProt Q9Y2G3),-0.0459,-0.0326
ASXL2_Q76L83_299_HTFSVLPGDCQQR (UniProt Q76L83),-0.0705,-0.476
ATM_Q13315_353_ENLIELMADICHQVFNEDTR (UniProt Q13315),-0.0111,0.367
ATP2A2_P16615_669_DACLNAR (UniProt P16615),-0.128,-0.193
ATPAF1_Q5TC12_194_AQSCPTFLCALPR (UniProt Q5TC12),0.223,0.0303
ATRX_P46100_1718_ALVDPGPDFVVCDEGHILK (UniProt P46100),0.0511,0.122
ATRN_O75882_657_SEAACLAAGPGIR (UniProt O75882),-0.107,0.00071
ATRX_P46100_1576_LKPHQVDGVQFMWDCCCESVK (UniProt P46100),-0.0106,0.0331
ATG13_O75143_339_THCAATPSSSEDTETVSNSSEGR (UniProt O75143),-0.397,-0.299
ATP2B4_P23634_24_EGDFGCTVMELR (UniProt P23634),-0.125,-0.0376
ATPAF2_Q8N5M1_276_TAAGTLFIHLCSESTTVK (UniProt Q8N5M1),0.0286,0.215
ATRX_P46100_1575_LKPHQVDGVQFMWDCCCESVKK (UniProt P46100),0.164,-0.666
ARRB2_P32121_141_ACGVDFEIR (UniProt P32121),-0.176,-0.298
ATP6V1C1_P21283_225_SSNVLSEDQDSYLCNVTLFR (UniProt P21283),0.0607,0.257
ASAP2_O43150_354_LNLLTCQVK (UniProt O43150),0.315,0.0897
ATL3_Q6DD88_256+262_NHIHSCFSDVTCFLLPHPGLQVATSPDFDGK (UniProt Q6DD88),0.137,-0.0197
ATL3_Q6DD88_429_ELYENFCK (UniProt Q6DD88),0.124,0.131

Target,probe-labelled cysteine peptide fold change (10 µM),probe-labelled cysteine peptide fold change (50 µM)
ATP6V1H_Q9UI12_73_QEMLQTEGSQCAK (UniProt Q9UI12),-0.0481,-0.0995
ATP2A2_P16615_364_TGTLTTNQMSVCR (UniProt P16615),0.259,-0.0183
ATP11B_Q9Y2G3_741_SDSECAEQLR (UniProt Q9Y2G3),0.0144,0.0989
ATOX1_O00244_41_VCIESEHSMDTLLATLKK (UniProt O00244),0.237,-0.215
ATL2_Q8NHH9_59_KPCPVQIVLAHEDDHNFELDEEALEQILLQEHIR (UniProt Q8NHH9),-0.148,0.162
ATP6V1B2_P21281_112_TSCEFTGDILR (UniProt P21281),-0.0801,0.191
ASMTL_O95671_546_VAESCKPGAGLLLVETLLDEEKR (UniProt O95671),0.0133,-0.396
ATRIP_Q8WXE1_585_FQCVFQVLPK (UniProt Q8WXE1),-0.0711,-0.117
ARSB_P15848_117+121_TGLQHQIIWPCQPSCVPLDEK (UniProt P15848),-0.126,0.189
ATP2B1_P20020_463+473_HLDACETMGNATAICSDK (UniProt P20020),-0.241,0.05
ATP6V0D1_P61421_39_AGVLSQADYLNLVQCETLEDLK (UniProt P61421),0.0989,0.206
ATP11B_Q9Y2G3_422_ECSINGMK (UniProt Q9Y2G3),-0.1,-0.176
ATR_Q13535_1430_AQDSAAYAIQELLSIYDCR (UniProt Q13535),-0.165,-0.00628
ATIC_P31939_146_VTVVCEPEDYVVVSTEMQSSESK (UniProt P31939),-0.00853,0.073
ATP6V1A_P38606_277_YSNSDVIIYVGCGER (UniProt P38606),0.00767,0.0679
ATM_Q13315_12_SLVLNDLLICCR (UniProt Q13315),0.0972,-0.269
ATP1A1_P05023_663_ACVVHGSDLK (UniProt P05023),0.124,-0.145
ATP6V0A2_Q9Y487_244_ICDCYHCHVYPYPNTAEER (UniProt Q9Y487),-0.0298,0.367

# 2 entries from above, bar-delimited:
Target | probe-labelled cysteine peptide fold change (10 µM) | probe-labelled cysteine peptide fold change (50 µM)
ATP11B_Q9Y2G3_422_ECSINGMK (UniProt Q9Y2G3) | -0.1 | -0.176
ATR_Q13535_1430_AQDSAAYAIQELLSIYDCR (UniProt Q13535) | -0.165 | -0.00628
